For this assay, the target named is T1, FCA fused with the binding domain (BD) (A. thaliana) (UniProt O04425).
T1 sequence: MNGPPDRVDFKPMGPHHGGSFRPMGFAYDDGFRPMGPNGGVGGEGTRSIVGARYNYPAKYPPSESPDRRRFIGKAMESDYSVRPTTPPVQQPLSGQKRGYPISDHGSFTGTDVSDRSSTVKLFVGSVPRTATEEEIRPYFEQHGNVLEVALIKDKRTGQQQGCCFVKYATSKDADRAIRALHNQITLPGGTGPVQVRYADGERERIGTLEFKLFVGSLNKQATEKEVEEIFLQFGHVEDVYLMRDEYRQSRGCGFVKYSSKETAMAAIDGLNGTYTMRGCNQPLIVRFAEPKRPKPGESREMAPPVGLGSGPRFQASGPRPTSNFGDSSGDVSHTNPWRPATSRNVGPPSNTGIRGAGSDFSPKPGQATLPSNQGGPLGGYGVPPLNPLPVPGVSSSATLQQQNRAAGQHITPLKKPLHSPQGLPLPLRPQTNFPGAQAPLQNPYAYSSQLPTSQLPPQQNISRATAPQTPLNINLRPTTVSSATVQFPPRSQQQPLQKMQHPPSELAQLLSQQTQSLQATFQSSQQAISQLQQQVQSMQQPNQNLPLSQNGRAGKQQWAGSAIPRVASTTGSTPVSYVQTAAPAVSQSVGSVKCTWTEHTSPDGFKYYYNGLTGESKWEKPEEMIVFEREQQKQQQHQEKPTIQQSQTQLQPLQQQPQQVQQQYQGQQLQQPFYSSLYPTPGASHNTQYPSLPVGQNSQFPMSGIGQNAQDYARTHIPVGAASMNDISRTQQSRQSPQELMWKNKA
As to the kind of experiment: two-hybrid; Matchmaker Gold yeast two-hybrid; BD fusions of SSF or FCA with AD-CUL1; 5x dilution series on medium without leucine, tryptophan, adenine and histidine.

Chains of the proteins cited; added tags and fusions are not shown.
UniProt Q94AH6: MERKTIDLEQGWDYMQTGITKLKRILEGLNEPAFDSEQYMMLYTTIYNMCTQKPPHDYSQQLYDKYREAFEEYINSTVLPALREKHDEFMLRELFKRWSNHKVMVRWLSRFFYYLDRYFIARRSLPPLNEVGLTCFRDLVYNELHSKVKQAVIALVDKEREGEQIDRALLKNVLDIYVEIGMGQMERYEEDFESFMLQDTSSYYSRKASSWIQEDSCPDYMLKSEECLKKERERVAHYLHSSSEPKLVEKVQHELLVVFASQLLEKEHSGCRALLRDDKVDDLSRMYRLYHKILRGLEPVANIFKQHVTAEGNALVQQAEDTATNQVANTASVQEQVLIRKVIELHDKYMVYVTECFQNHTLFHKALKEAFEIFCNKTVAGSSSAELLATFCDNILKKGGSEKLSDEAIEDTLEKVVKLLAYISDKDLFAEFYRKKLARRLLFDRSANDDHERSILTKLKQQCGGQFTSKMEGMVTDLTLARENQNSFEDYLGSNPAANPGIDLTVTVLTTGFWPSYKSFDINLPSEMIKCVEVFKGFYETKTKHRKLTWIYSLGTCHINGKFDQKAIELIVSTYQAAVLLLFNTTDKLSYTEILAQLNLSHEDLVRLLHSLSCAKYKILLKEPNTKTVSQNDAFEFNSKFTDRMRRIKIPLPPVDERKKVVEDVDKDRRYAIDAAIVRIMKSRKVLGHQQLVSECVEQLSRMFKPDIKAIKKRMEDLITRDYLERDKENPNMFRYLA

These are yes or no findings as the source states them, for the method shown. Some results given as binding are weak or reduced against the parent protein; the word gives no strength. Tags and fused reporters may be left off the sequences shown.

Regarding AD-CUL1 (from UniProt Q94AH6 1-738), the binding entry is reported as “binds”.
